These are yes or no findings as the source states them, for the method shown. Binding seen in cells or lysates may run through a third protein. Some results given as binding are weak or reduced against the parent protein; the word gives no strength. Where a sequence is shown, tags or fusion partners need not be part of it.
Experiments:
[1] = target: myc-NIK (wild-type NIK fused N-terminally to a six myc tag) (UniProt Q99558); test: co-immunoprecipitation from HEK-293T lysate: NIK immunoprecipitated with anti-NIK antibody, SIVA detected by Western blot (FIG. 5)
[2] = target: endogenous cellular inhibitor of apoptosis protein 1 (cIAP1) (UniProt Q13490); test: co-immunoprecipitation from HEK-293T lysate: endogenous cIAP1 immunoprecipitated with anti-cIAP1, SIVA detected by Western blot

Protein sequences, listed by entry. Tags and fused reporters are not part of them.
UniProt Q99558: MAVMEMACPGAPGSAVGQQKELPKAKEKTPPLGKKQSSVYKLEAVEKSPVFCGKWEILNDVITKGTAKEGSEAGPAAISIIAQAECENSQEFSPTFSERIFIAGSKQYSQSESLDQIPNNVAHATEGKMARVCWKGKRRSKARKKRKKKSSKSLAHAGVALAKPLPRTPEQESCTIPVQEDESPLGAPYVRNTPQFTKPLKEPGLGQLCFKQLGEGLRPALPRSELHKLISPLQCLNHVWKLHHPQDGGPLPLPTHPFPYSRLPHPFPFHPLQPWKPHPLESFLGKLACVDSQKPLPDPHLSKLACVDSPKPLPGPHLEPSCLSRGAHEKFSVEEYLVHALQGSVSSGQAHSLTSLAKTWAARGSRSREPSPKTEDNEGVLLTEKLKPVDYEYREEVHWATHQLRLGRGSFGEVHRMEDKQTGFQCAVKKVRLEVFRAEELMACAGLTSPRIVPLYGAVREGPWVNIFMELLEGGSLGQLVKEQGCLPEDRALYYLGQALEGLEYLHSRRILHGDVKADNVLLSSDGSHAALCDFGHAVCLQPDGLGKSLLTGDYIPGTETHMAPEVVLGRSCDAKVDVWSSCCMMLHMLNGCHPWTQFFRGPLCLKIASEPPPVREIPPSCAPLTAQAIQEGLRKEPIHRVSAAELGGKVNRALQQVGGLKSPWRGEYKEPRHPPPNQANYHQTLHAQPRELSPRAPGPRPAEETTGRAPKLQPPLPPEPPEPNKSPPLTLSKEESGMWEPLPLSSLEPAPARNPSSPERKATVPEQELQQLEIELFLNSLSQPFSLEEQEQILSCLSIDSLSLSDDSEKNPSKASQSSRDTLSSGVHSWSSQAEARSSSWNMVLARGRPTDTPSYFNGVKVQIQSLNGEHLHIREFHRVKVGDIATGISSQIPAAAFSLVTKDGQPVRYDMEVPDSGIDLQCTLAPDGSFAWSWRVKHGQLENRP
UniProt Q13490: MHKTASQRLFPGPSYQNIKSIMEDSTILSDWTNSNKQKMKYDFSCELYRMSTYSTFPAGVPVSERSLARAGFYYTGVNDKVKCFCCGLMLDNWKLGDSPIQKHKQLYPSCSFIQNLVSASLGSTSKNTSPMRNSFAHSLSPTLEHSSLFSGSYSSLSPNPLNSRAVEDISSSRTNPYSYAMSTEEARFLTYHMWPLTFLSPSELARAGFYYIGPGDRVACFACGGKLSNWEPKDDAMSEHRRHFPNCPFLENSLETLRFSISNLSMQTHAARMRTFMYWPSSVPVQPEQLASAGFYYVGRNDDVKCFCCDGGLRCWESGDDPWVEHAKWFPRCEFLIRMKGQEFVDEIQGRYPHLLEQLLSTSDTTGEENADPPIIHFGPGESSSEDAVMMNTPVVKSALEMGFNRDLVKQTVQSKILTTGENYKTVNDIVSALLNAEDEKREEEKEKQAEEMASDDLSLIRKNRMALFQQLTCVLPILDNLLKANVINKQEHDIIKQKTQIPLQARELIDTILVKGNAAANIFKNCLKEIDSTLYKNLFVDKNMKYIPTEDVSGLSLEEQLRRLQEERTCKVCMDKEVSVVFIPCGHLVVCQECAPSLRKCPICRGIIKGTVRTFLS

B1: FLAG-SIVA2 (protein, human, UniProt O15304-2 1-110, looked up, not shown: small tags and cut ends)
chain: MPKRSCPFADVAPLQLKVRVSQRELSRGVCAERYSQEVFDPSGVASIACSSCVRAVDGKAVCGQCERALCGQCVRTCWGCGSVACTLCGLVDCSDMYEKVLCTSCAMFET
With B1 the binding [1] was “binds” and the binding [2] was “binds”.

Source: patent US20110035817A1
